# Record: PubChem BioAssay AID1259254 (NCATS, 2017)
# Aim: 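Finding genes that stop cells copying their DNA twice in one cycle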 (primary screen)
# Cells: human HCT116 colorectal cancer cells
# Knock-down reagent: single siRNA against human genes
# Timing: 3 days
# Detection: 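Nuclei stained with Hoechst and imaged; cell-cycle phase assigned by DNA content; G2 share scaled per plate, non-targeting siRNA 0%, GMNN siRNA 100%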
# Reading the numbers: G2 robust z-score and G2 cells, % of GMNN control: higher = more G2 cells, more excess DNA replication
# Call rule: 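An siRNA counts as active if its G2 robust z-score lies at least 5 MADs above the screen median; here such calls match roughly 38% of GMNN control or more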
# The whole screen tested about 59,000 reagents; shown is an unselected part. About 1,550 of all reagents (2.6%) were called active. 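G2 share is only a proxy for re-replication; each gene was hit by three separate siRNAs, and active genes were retested.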 Unmarked entries are inactive. The numbers tell different reagents against one gene apart. Further read-outs or replicates are left out here. Not given: the amount of reagent.
gene,siRNA no.,G2 robust z-score,"G2 cells, % of GMNN control"
CDCA4,1,0.757,8.29
CDCA4,2,0.0756,3.5
CDCA4,3,0.109,3.73
TAS2R10,1,0.415,5.89
TAS2R10,2,1.95,16.7
TAS2R10,3,0.104,3.7
THSD7B,1,-0.0771,2.42
THSD7B,2,2.2,18.5
THSD7B,3,0.606,7.23
TEDDM1,1,2.08,17.6
TEDDM1,2,-0.38,0.296
TEDDM1,3,4.14,32.1
ACADVL,1,-1.16,-5.17
ACADVL,2,-0.729,-2.16
ACADVL,3,-0.476,-0.382
BMF,1,-0.942,-3.66
BMF,2,-0.111,2.19
BMF,3,-0.157,1.86
PLEKHG4B,1,0.464,6.23
PLEKHG4B,2,-0.539,-0.826
PLEKHG4B,3,-0.139,1.99
UBE3D,1,0.459,6.2
UBE3D,2,5.21 (active),39.7
UBE3D,3,-0.106,2.22
COX6A2,1,-0.799,-2.65
COX6A2,2,-1.23,-5.66
COX6A2,3,0.467,6.25

Continued, starting with the last 3 of the part before.
gene,siRNA no.,G2 robust z-score,"G2 cells, % of GMNN control"
COX6A2,1,-0.799,-2.65
COX6A2,2,-1.23,-5.66
COX6A2,3,0.467,6.25
ZC3H10,1,0.4,5.78
ZC3H10,2,-0.736,-2.21
ZC3H10,3,-0.183,1.68
RNPEP,1,-1.04,-4.35
RNPEP,2,-0.492,-0.492
RNPEP,3,-0.549,-0.898
PCNX3,1,-0.859,-3.07
PCNX3,2,0.612,7.27
PCNX3,3,-0.507,-0.598
KY,1,-0.83,-2.87
KY,2,-0.511,-0.624
KY,3,-0.535,-0.796
KDM4E,1,4.87,37.2
KDM4E,2,0.148,4.01
KDM4E,3,5.28 (active),40.1
FMO4,1,-0.068,2.49
FMO4,2,-0.048,2.63
FMO4,3,-0.981,-3.93
LOC728114 (retired record),1,1.26,11.8
LOC728114 (retired record),2,0.313,5.17
LOC728114 (retired record),3,0.167,4.14
CCNE1,1,-0.0494,2.62
CCNE1,2,-0.86,-3.08
CCNE1,3,1.86,16.1
GLYATL1P4,1,1.85,16
GLYATL1P4,2,1.6,14.2
GLYATL1P4,3,0.437,6.04
ZKSCAN1,1,1.57,14
ZKSCAN1,2,4.2,32.5
ZKSCAN1,3,-0.842,-2.95
RNF167,1,2.67,21.7
RNF167,2,0.685,7.79
RNF167,3,0.617,7.31
PYGO1,1,0.807,8.64
PYGO1,2,0.0418,3.26
PYGO1,3,-0.576,-1.08
OXTR,1,2.1,17.7
OXTR,2,-0.425,-0.0214
OXTR,3,0.167,4.14
MYL12BP3,1,2.12,17.9
MYL12BP3,2,0.0387,3.24
MYL12BP3,3,-0.648,-1.59
